Out of some 320,000 compounds screened, about 480 (0.15%) were called active. This list was built around the results that the source calls inconclusive (neither active nor inactive); the mix of calls is not that of the screen. Rule as the data show it: active = inhibition above about 26% (passing the limit was not always enough); inconclusive = no clear call, values can overlap the other calls.
Target: Histone deacetylase 3 (Homo sapiens) (UniProt O15379)
Assay: HDAC3 deacetylase inhibitors, primary screen, biochemical, fluorescence, cell-free homogeneous (AID 2718)
Settings: recombinant HDAC3, fluorogenic peptide/trypsin coupled, at 8.3 µM, active compounds read high

The chains behind the UniProt entries cited, without tags or fusion partners. Where a name states a change or a piece, a line headed by the entry shows the natural chain unless it says otherwise.
UniProt O15379: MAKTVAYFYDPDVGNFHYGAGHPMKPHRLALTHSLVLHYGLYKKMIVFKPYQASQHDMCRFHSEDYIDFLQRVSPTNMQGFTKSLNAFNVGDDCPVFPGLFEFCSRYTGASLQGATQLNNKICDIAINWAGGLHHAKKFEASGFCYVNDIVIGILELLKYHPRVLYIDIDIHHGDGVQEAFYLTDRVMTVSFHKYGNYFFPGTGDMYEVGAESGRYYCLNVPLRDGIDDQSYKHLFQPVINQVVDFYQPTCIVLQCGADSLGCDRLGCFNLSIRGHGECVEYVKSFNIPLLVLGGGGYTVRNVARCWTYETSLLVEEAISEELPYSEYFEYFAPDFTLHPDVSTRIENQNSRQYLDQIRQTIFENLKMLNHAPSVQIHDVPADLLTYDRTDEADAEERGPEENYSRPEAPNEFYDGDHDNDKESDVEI

Question: Which inhibition does the source give for CC(C)c1ccccc1NC(=S)NC1CCCCC1 here?
Answer: inconclusive: 19.5%

Question: For CC1CCc2c(sc3nn[nH]c(=O)c23)C1 (stereo not given), which inhibition is on record?
Answer: inconclusive: 19.1%

Question: Which inhibition does the source give for O=C1CN(c2nc(-c3ccccc3)c3cc(Br)ccc3n2)c2ccccc2N1 here?
Answer: inconclusive: 22.5%

Question: With COc1ccc(C)cc1NC(=O)CN(C)S(=O)(=O)c1ccc2c(c1)CCCN2C(C)=O as the compound, how does the inhibition read?
Answer: inconclusive: 15.7%

Question: O=C(CN1CCC(O)(c2ccc3c(c2)OCO3)CC1)N1CCOCC1 was tested. Which inhibition did it give?
Answer: inconclusive: 21.6%

Question: Which inhibition does the source give for CCOc1ccc(-n2c(=O)c3c4c(sc3n(CC(=O)NCC3CCCO3)c2=O)CCC4)cc1 (stereo not given) here?
Answer: inconclusive: 11.5%

Question: Which inhibition does the source give for C[C@H]1CN([C@@H](C)CO)C(=O)Cc2cc(NC(=O)CCC(F)(F)F)ccc2O[C@H]1CN(C)Cc1ccc(-c2ccccc2)cc1 here?
Answer: inconclusive: 24.7%

Question: How did the inhibition turn out when CCN(CC)CCCC1(CN)OCCc2ccccc21 (stereo not given) was run?
Answer: inconclusive: 27.6%

Question: Which inhibition does the source give for Cn1c(=O)oc2cc(S(=O)(=O)N3CCC(C(=O)NCc4ccc(F)cc4)CC3)ccc21 here?
Answer: inactive: 2.65%

Question: How did the inhibition turn out when COC(=O)C1=NN(c2cccc3ccccc23)C2C(=O)N(c3ccccc3OC)C(=O)C12 (stereo not given) was run?
Answer: inactive: 3.1%

Question: For COc1ccccc1OCc1nn[nH]n1, which inhibition is on record?
Answer: inactive: 2.61%

Question: With COC(=O)c1cccc(NC(=O)Nc2ccc(Cl)cc2Cl)c1 as the compound, how does the inhibition read?
Answer: inconclusive: 3.48%

Question: How did the inhibition turn out when O=C(Nc1nccs1)C1Cc2ccccc2CN1S(=O)(=O)c1ccc(F)cc1 (stereo not given) was run?
Answer: inconclusive: 12%

Question: For O=C(Nc1ccccc1N1CCN(C(=O)c2ccc(Cl)cc2)CC1)c1ccc2c(c1)OCO2, which inhibition is on record?
Answer: inconclusive: 9.02%

Question: Which inhibition does the source give for Cc1ccc(CNC(=O)c2ccc(N(C)C)cc2)cc1 here?
Answer: inconclusive: 20%

Question: For C/C(=N/NC(=O)CNC(=O)c1cccnc1)c1ccc(Cl)cc1, which inhibition is on record?
Answer: inactive: 4.94%

Question: Which inhibition does the source give for OCC[C@H]1C[C@@H](O)[C@H](O)[C@]2(Cc3ccccc3CCO2)O1 here?
Answer: inactive: 1.07%

Question: How did the inhibition turn out when O=C(N/N=C/c1ccc(-c2ccccc2Cl)o1)c1ccccc1 was run?
Answer: inactive: 2.84%

Question: With Cc1snnc1C(=O)NC(=S)Nc1ccccc1 as the compound, how does the inhibition read?
Answer: inactive: -2.73%

Question: N#Cc1cc(C(=O)c2cc(Cl)ccc2O)cn(-c2ccccc2)c1=O was tested. Which inhibition did it give?
Answer: inconclusive: 23.5%

Question: How did the inhibition turn out when CCCCCCC(=O)N(O)C1CC(=O)N(c2ccc(C)cc2)C1=O (stereo not given) was run?
Answer: inconclusive: 76.6%

Question: How did the inhibition turn out when O=C(CCc1nnc2ccc(NCc3ccco3)nn12)Nc1ccc(F)cc1 was run?
Answer: inconclusive: 25.1%

Question: How did the inhibition turn out when CC(C)C[C@H](NC(=O)c1[nH]cnc1C(=O)Nc1ccc(CNC(=O)OC(C)(C)C)cc1)C(=O)OC(C)(C)C was run?
Answer: active: 51.7%

Question: CCOC(=O)c1ccc(NC(=S)N2CCSC2c2ccc(Cl)cc2)cc1 (stereo not given) was tested. Which inhibition did it give?
Answer: inconclusive: 16.7%

Question: Which inhibition does the source give for Cc1nn(-c2ccc(N3CCCCC3)nn2)c(C)c1CCC(=O)Nc1ccc(F)c(F)c1 here?
Answer: inconclusive: 15.7%

Question: For COc1ccc(C2CC(=O)N3CN(Cc4ccco4)CSC3=C2C#N)cc1 (stereo not given), which inhibition is on record?
Answer: active: 36.9%

Question: How did the inhibition turn out when COc1ccc(CC(=O)NCC(=O)N/N=C/c2ccc(C)o2)cc1 was run?
Answer: inconclusive: 16%

Question: With COc1ccc(NC2(c3ccccc3)OC(=O)c3ccccc32)cc1 (stereo not given) as the compound, how does the inhibition read?
Answer: inconclusive: 17.7%

Question: For COc1cc2ccccc2cc1C(=O)N(CCN(C)C)c1nc2ccc(C)cc2s1, which inhibition is on record?
Answer: inconclusive: 23%

Question: How did the inhibition turn out when COc1ccc(-n2c(Cc3cccn3C)nnc2SCC(=O)Nc2ccccc2OC)cc1 was run?
Answer: inactive: 5.97%

Question: With CCn1nnc(C(=O)O)c1C(=O)O as the compound, how does the inhibition read?
Answer: inconclusive: 18.5%

Question: With CC(=O)N1CC(C)Sc2ccc(S(=O)(=O)NCc3ccc(Cl)cc3)cc21 (stereo not given) as the compound, how does the inhibition read?
Answer: inconclusive: 22.9%

Question: How did the inhibition turn out when CC(C)(C)C1CCc2onc(C(=O)NC3CCCC3)c2C1 (stereo not given) was run?
Answer: inconclusive: 13%

Question: How did the inhibition turn out when O=C(CCNS(=O)(=O)c1ccccc1F)N1CCN(C(c2ccccc2)c2ccccc2)CC1 was run?
Answer: inconclusive: 20.5%

Question: With O=c1c2ccccc2c(-c2ccccc2)nn1-c1cc(Cl)ccc1[N+](=O)[O-] as the compound, how does the inhibition read?
Answer: inconclusive: 17.9%

Reference: PubChem BioAssay AID2718 (Broad Institute, 2010)
